This is one part of the list. The main result of the screen is listed elsewhere. These columns were measured beside it and carry no call. The list favours compounds with an active or inconclusive main result. Words in brackets tell the shape of the fitted curve; partial curves, single points and poor fits give uncertain potencies.
Experiment: qHTS Assay for Modulators of Lamin A Splicing
Settings: HeLa LMNA splicing GFP/RFP minigene ratio, 48 h
Outline: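 S3 HeLa stable clones carrying a lamin A-EGFP splicing minigene plus DsRed2 were seeded at 600 cells/well in Opti-MEM with 2% FBS, pin-dosed and incubated 48 h at 37°C. Acumen cytometry (488 nm) gave the GFP/RFP total-intensity ratio.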

[1] = measured here: GFP splicing reporter channel
[2] = measured here: RFP viability control channel

SMILES: N#C/C(=C\c1cccc(NC(=O)c2ccccc2Cl)c1)C(=O)NCCc1ccccc1
- AC50 [1]: 28.2 µM [falling, single point]
- AC50 [2]: 15.8 µM [falling, single point]

SMILES: COc1ccc(NC(=O)/C=C/c2ccc(Cl)cc2)cc1
- AC50 [1]: 4.47 µM [rising, partial curve, poor fit]
- AC50 [2]: 11.2 µM [rising, partial curve]

SMILES: CSc1nc2ccc(NS(=O)(=O)c3cccc(Cl)c3Cl)cc2s1
- AC50 [2]: 25.1 µM [rising, single point]

SMILES: Cc1ccc(S(=O)(=O)N/N=C\c2cc([N+](=O)[O-])ccc2Cl)cc1
- AC50 [2]: 11.2 µM [rising, partial curve, poor fit]

SMILES: COC(=O)c1ccccc1NC(=O)CSc1nc2ccccc2nc1Cc1ccc(F)cc1
- AC50 [1]: 1 µM [rising, full curve, poor fit]
- AC50 [2]: 0.891 µM [rising, full curve, poor fit]

SMILES: CCOC(=O)N1CCN(C(=O)C(C)N(c2ccc(Oc3ccccc3)cc2)S(C)(=O)=O)CC1 (centres undefined)
- AC50 [1]: 5.01 µM [rising, full curve, poor fit]
- AC50 [2]: 10 µM [rising, partial curve]

SMILES: NC(=S)N=Nc1c(O)n(CCCl)c2ccc(Cl)cc12
- AC50 [1]: 5.62 µM [rising, partial curve, poor fit]
- AC50 [2]: 12.6 µM [rising, partial curve]

SMILES: CC(=O)c1ccc(NC(=O)CN2C(=O)/C(=C/C(C)=C/c3ccccc3)SC2=S)cc1
- AC50 [2]: 6.31 µM [rising, partial curve, poor fit]

SMILES: COc1ccccc1NC(=O)N1C2CCCC1CC(NC(=O)c1ccccc1)C2 (centres undefined)
- AC50 [1]: 0.0251 µM [falling, full curve]

SMILES: CCOC(=O)N1CCN(S(=O)(=O)c2ccc(C(=O)Nc3nnc(C4CC4)o3)cc2)CC1
- AC50 [2]: 35.5 µM [rising, single point]

SMILES: Cc1nnc(NC(=O)CSc2nccn2Cc2ccccc2)s1
- AC50 [1]: 0.794 µM [rising, full curve]
- AC50 [2]: 1.41 µM [rising, full curve]

SMILES: COc1ccc(CNC(=O)c2c(O)c3cccc4c3n(c2=O)CCC4)cc1
- AC50 [1]: 5.62 µM [rising, partial curve, poor fit]

SMILES: CCCn1c(N2CCN(CC(=O)NCc3cccs3)CC2)nc2ccccc21
- AC50 [2]: 0.0447 µM [rising, full curve, poor fit]

SMILES: O=S(=O)(c1ccc(NC(=S)Nc2ccc(OC(F)F)cc2)cc1)N1CCOCC1
- AC50 [2]: 15.8 µM [rising, single point]

SMILES: CN(C(=O)c1ccco1)c1nnc(C23CC4CC(CC(C4)C2)C3)s1
- AC50 [2]: 12.6 µM [rising, single point]

SMILES: COc1ccc(C(=O)NCC(=O)N/N=C/C(C)=C/c2ccco2)cc1OC
- AC50 [2]: 12.6 µM [rising, single point]

SMILES: Cc1cccc(NC(=S)NC(=O)/C=C/c2ccco2)n1
- AC50 [2]: 35.5 µM [rising, single point]

SMILES: Cc1ccc(NC(=O)c2cc3c(s2)CCCC3)cc1S(=O)(=O)Nc1ccccc1Cl
- AC50 [1]: 15.8 µM [rising, single point]
- AC50 [2]: 15.8 µM [rising, partial curve]

SMILES: CNS(=O)(=O)c1ccc(C)c(S(=O)(=O)NC)c1
- AC50 [2]: 0.398 µM [rising, full curve, poor fit]

SMILES: COc1cc2[nH]c(=O)n(Cc3ccc(C(=O)NC4CCN(Cc5ccccc5)CC4)cc3)c(=O)c2cc1OC
- AC50 [1]: 11.2 µM [falling, partial curve]

SMILES: COc1ccc(C(=O)/C=C/c2ccc(OC(=O)c3cc(OC)c(OC)c(OC)c3)cc2)cc1
- AC50 [1]: 0.02 µM [falling, full curve, poor fit]
- AC50 [2]: 25.1 µM [falling, partial curve]

SMILES: O=C(NC(CO)Cc1ccc([N+](=O)[O-])cc1)C(Cl)Cl (centres undefined)
- AC50 [2]: 28.2 µM [rising, single point]

SMILES: COc1ccc(C)cc1-n1nnnc1SCC(=O)N1CCC(C(=O)Nc2nccs2)CC1
- AC50 [1]: 6.31 µM [rising, full curve]
- AC50 [2]: 3.98 µM [rising, full curve]

SMILES: COc1ccc2c(c1)c(=O)c(C(=O)c1ccccc1)cn2Cc1ccccc1
- AC50 [2]: 14.1 µM [rising, partial curve]

SMILES: Cc1ccc(OCC(=O)N2CCc3ccccc32)cc1
- AC50 [1]: 35.5 µM [rising, single point]
- AC50 [2]: 35.5 µM [rising, single point]

SMILES: O=C(Oc1ccc(=O)n(-c2ccccc2)n1)c1ccc(F)cc1
- AC50 [2]: 0.0141 µM [rising, full curve, poor fit]

SMILES: Cc1nn(-c2ccc(F)cc2F)c2c1-c1nc(N3CCCC3)ncc1CC2
- AC50 [1]: 22.4 µM [rising, single point]
- AC50 [2]: 35.5 µM [rising, single point]

SMILES: CCCCN(C)CCCNC(=O)C1CC(=O)N(Cc2ccc(OC)cc2)C1 (centres undefined)
- AC50 [2]: 5.62 µM [falling, partial curve, poor fit]

SMILES: COc1ccc(N2CCN(c3oc(Cc4ccccc4)nc3C#N)CC2)cc1
- AC50 [1]: 35.5 µM [falling, single point]
- AC50 [2]: 35.5 µM [falling, single point]

SMILES: Cc1ccc(N2C(S)=C(C#N)C(=O)NC23CCCCC3)cc1
- AC50 [1]: 2.82 µM [falling, partial curve, poor fit]

SMILES: CC1CCN(CC(=O)Nc2cccc(C(=O)Nc3cccc(C(F)(F)F)c3)c2)CC1
- AC50 [2]: 14.1 µM [rising, single point]

SMILES: CCCNC(=O)c1cnc2c(-c3ccc(OCC)c(OCC)c3)c(C)nn2c1-c1ccccc1
- AC50 [1]: 0.0447 µM [falling, full curve, poor fit]

SMILES: CCOC(=O)N1CCC(NC(=O)c2cc(C(=O)NCc3cccc(Cl)c3)ccc2CO)CC1
- AC50 [2]: 14.1 µM [rising, partial curve]

SMILES: COc1cccc(C2CC(=O)C3=C(C2)Nc2ccccc2N(C(=O)CCC(=O)O)C3c2ccc(F)cc2)c1 (centres undefined)
- AC50 [1]: 2 µM [rising, partial curve]

SMILES: CS(=O)(=O)N(CC(=O)N1CCN(c2cccc(Cl)c2)CC1)C1CCCCC1
- AC50 [2]: 14.1 µM [rising, partial curve]

SMILES: O=C(CNc1ccc(Cl)cc1)NNC(=S)NCc1ccccc1
- AC50 [1]: 2 µM [falling, partial curve]
- AC50 [2]: 2 µM [falling, partial curve]

SMILES: CCc1nnc(NC(=O)CC(CN(C)S(=O)(=O)c2ccccc2)c2ccccc2)s1 (centres undefined)
- AC50 [2]: 5.62 µM [rising, single point]

SMILES: Cc1ccc(C)c(OCCN2C(=O)NC3(CCc4ccccc4C3)C2=O)c1 (centres undefined)
- AC50 [1]: 7.08 µM [rising, partial curve]
- AC50 [2]: 7.94 µM [rising, partial curve]

SMILES: O=[N+]([O-])c1ccc(-c2csc(N3CCc4ccccc4C3)n2)cc1
- AC50 [1]: 5.62 µM [falling, partial curve, poor fit]

SMILES: Cc1cc(CN2CCCC(CNC(=O)c3ccc(F)cc3)C2)cc(C)c1O (centres undefined)
- AC50 [2]: 0.794 µM [falling, full curve, poor fit]

SMILES: COc1ccc2nc(NC(=O)c3cc(S(=O)(=O)N4CCOCC4)ccc3C)sc2c1
- AC50 [2]: 35.5 µM [rising, single point]

SMILES: O=C(CN1CCN(C(=O)c2ccco2)CC1)Nc1ccc(Cl)c(S(=O)(=O)N2CCOCC2)c1
- AC50 [1]: 0.00708 µM [rising, full curve, poor fit]

SMILES: COc1ccc(/C=C/C(=O)c2ccc(Cl)s2)cc1O
- AC50 [1]: 35.5 µM [falling, single point]
- AC50 [2]: 35.5 µM [falling, single point]

SMILES: O=C(NC1CCCc2ccccc21)C1CCN(S(=O)(=O)c2cccc(C(F)(F)F)c2)CC1 (centres undefined)
- AC50 [1]: 10 µM [rising, partial curve]
- AC50 [2]: 17.8 µM [rising, partial curve]

SMILES: N#Cc1nc(COc2cccc(Cl)c2)oc1NCc1ccncc1
- AC50 [1]: 12.6 µM [rising, partial curve]
- AC50 [2]: 11.2 µM [rising, single point]

SMILES: Cc1cc(S(=O)(=O)NCc2ccccc2)ccc1OCC(=O)NCC1CCCO1 (centres undefined)
- AC50 [2]: 2.51 µM [falling, single point]

SMILES: COc1ccc(CCNc2oc(COc3ccccc3F)nc2C#N)cc1OC
- AC50 [1]: 10 µM [rising, partial curve]
- AC50 [2]: 14.1 µM [rising, single point]

SMILES: Cc1ccc(S(=O)(=O)N2CCCC(C(=O)NCc3cccnc3)C2)cc1Cl (centres undefined)
- AC50 [1]: 5.01 µM [rising, full curve, poor fit]
- AC50 [2]: 3.98 µM [rising, full curve]

SMILES: N#C/C(=C\c1ccc(C(=O)O)cc1)c1nc2sc3c(c2c(=O)[nH]1)CCCC3
- AC50 [1]: 0.178 µM [rising, full curve]
- AC50 [2]: 0.0708 µM [rising, full curve, poor fit]

SMILES: Cc1cc(NS(=O)(=O)c2ccc(NC(=S)NC(=O)c3ccc(C(C)(C)C)cc3)cc2)no1
- AC50 [1]: 4.47 µM [rising, single point]

SMILES: Cc1ccccc1-c1nc(SCC(=O)N(C)c2ccccc2)c2c(=O)n(C)c(=O)n(C)c2n1
- AC50 [1]: 5.62 µM [falling, single point]

SMILES: CCc1c(C)[nH]n(-c2nc(-c3cccc([N+](=O)[O-])c3)cs2)c1=O
- AC50 [2]: 35.5 µM [rising, single point]

SMILES: Cc1c(/C=N/NC(=O)c2ccccc2O)c2ccccn2c1C(=O)c1ccc(F)cc1
- AC50 [1]: 12.6 µM [falling, partial curve]

SMILES: CCN(CC)C(=O)Cn1cc(S(=O)(=O)CC(=O)Nc2ccc3c(c2)OCCO3)c2ccccc21
- AC50 [1]: 0.282 µM [rising, partial curve]

Reference: PubChem BioAssay AID1487 (National Center for Advancing Translational Sciences (NCATS), 2009)
